In patent publication US20180319855A1, “GENETICALLY MUTATED AEQUORIN-BASED BIOSENSORS WITH EXTRA SENSITIVITY TO CALCIUM AND IMPROVED BIOLUMINESCENCE INTENSITY” (CENTRE NATIONAL DE LA RECHERCHE SCIENTIFIQUE (CNRS), priority 2015, published 2018):

Assay: Spectral measurement of bioluminescence emission
Format: physicochemical
Conditions: CLZ-f; redquorin series, CitA, GA
Experimental: Spectral Measurement and Analysis.
Fifteen microliter aliquot of photoprotein samples was brought in contact with 200 μl saturating calcium solution (50 mM Tris-HCl, 100 mM CaCl2, pH 7.5) in a PCR tube to induce light emission. Emitted photons were collected via an optic fiber, guided into a spectrometer (Specim), and captured by an EM-CCD camera (Andor DU-897 back illuminated). Spectral calibration was performed using laser pointers (405 and 650 nm). This home-made setup, from the lab of Prof. Philippe Brûlet, allowed immediate and synchronous spectral analysis (no scanning) of emitted luminescence with 1-nm resolution (Curie et al. 2007).

Molecule | Spectral emission peak
Redq/QT + AT: aporedquorin mutant Q159T + A179T (SEQ ID NO:24) (protein, mutant aequorin) MVSKGEEVIKEFMRFKVRMEGSMNGHEFEIEGEGEGRPYEGTQTAKLKVTKGGPLPFAWDILSPQFMYGSKAYVKHPADIPDYKKLSFPEGFKWERVMNFEDGGLVTVTQDSSLQDGTLIYKVKMRGTNFPPDGPVMQKKTMGWEASTERLYPRDGVLKGEIHQALKLKDGGHYLVEFKTIYMAKKPVQLPGYYYVDTKLDITSHNEDYTIVEQYERSEGRHHLFLGHGTGSTGSGSSGTASSEDNNMAVIKEFMRFKVRMEGSMNGHEFEIEGEGEGRPYEGTQTAKLKVTKGGPLPFAWDILSPQFMYGSKAYVKHPADIPDYKKLSFPEGFKWERVMNFEDGGLVTVTQDSSLQDGTLIYKVKMRGTNFPPDGPVMQKKTMGWEASTERLYPRDGVLKGEIHQALKLKDGGHYLVEFKTIYMAKKPVQLPGYYYVDTKLDITSHNEDYTIVEQYERSEGRHHLFLSGFDNPRWIGRHKHMFNFLDVNHNGKISLDEMVYKASDIVINNLGATPEQAKRHKDAVEAFFGGAGMKYGVETDWPAYIEGWKKLATDELEKYAKNEPTLIRIWGDALFDIVDKDQNGAITLDEWKAYTKAAGIIQSSEDCEETFRVCDIDESGTLDVDEMTRQHLGFWYTMDPTCEKLYGGAVP | 582 nm

Same assay, conditions: CLZ-f; saturating calcium

Molecule | Spectral emission peak
S157D: apoaequorin mutant, serine 157 replaced by aspartic acid (SEQ ID NO:12) (protein, mutant aequorin) SKLTSDFDNPRWIGRHKHMFNFLDVNHNGKISLDEMVYKASDIVINNLGATPEQAKRHKDAVEAFFGGAGMKYGVETDWPAYIEGWKKLATDELEKYAKNEPTLIRIWGDALFDIVDKDQNGAITLDEWKAYTKAAGIIQSSEDCEETFRVCDIDEDGQLDVDEMTRQHLGFWYTMDPACEKLYGGAVP | 475 nm
QD + AD: apoaequorin double mutant Q159D + A123D (SEQ ID NO:15) (protein, mutant aequorin) SKLTSDFDNPRWIGRHKHMFNFLDVNHNGKISLDEMVYKASDIVINNLGATPEQAKRHKDAVEAFFGGAGMKYGVETDWPAYIEGWKKLATDELEKYAKNEPTLIRIWGDALFDIVDKDQNGDITLDEWKAYTKAAGIIQSSEDCEETFRVCDIDESGDLDVDEMTRQHLGFWYTMDPACEKLYGGAVP | 475 nm
Q159D: apoaequorin mutant, glutamine 159 replaced by aspartic acid (SEQ ID NO:5) (protein, mutant aequorin) SKLTSDFDNPRWIGRHKHMFNFLDVNHNGKISLDEMVYKASDIVINNLGATPEQAKRHKDAVEAFFGGAGMKYGVETDWPAYIEGWKKLATDELEKYAKNEPTLIRIWGDALFDIVDKDQNGAITLDEWKAYTKAAGIIQSSEDCEETFRVCDIDESGDLDVDEMTRQHLGFWYTMDPACEKLYGGAVP | 478 nm
Q159T: apoaequorin mutant, glutamine 159 replaced by threonine (SEQ ID NO:6) (protein, mutant aequorin) SKLTSDFDNPRWIGRHKHMFNFLDVNHNGKISLDEMVYKASDIVINNLGATPEQAKRHKDAVEAFFGGAGMKYGVETDWPAYIEGWKKLATDELEKYAKNEPTLIRIWGDALFDIVDKDQNGAITLDEWKAYTKAAGIIQSSEDCEETFRVCDIDESGTLDVDEMTRQHLGFWYTMDPACEKLYGGAVP | 477 nm
QT + AT: apoaequorin double mutant Q159T + A179T (SEQ ID NO:18) (protein, mutant aequorin) SKLTSDFDNPRWIGRHKHMFNFLDVNHNGKISLDEMVYKASDIVINNLGATPEQAKRHKDAVEAFFGGAGMKYGVETDWPAYIEGWKKLATDELEKYAKNEPTLIRIWGDALFDIVDKDQNGAITLDEWKAYTKAAGIIQSSEDCEETFRVCDIDESGTLDVDEMTRQHLGFWYTMDPTCEKLYGGAVP | 478 nm
Aeq-wt: wild-type aequorin: apoaequorin of Aequorea victoria (SEQ ID NO:1) reconstituted with coelenterazine (protein, listed as Aequorea aequorea, reconstituted with coelenterazine; SITE (1)..(189) wild-type aequorin) SKLTSDFDNPRWIGRHKHMFNFLDVNHNGKISLDEMVYKASDIVINNLGATPEQAKRHKDAVEAFFGGAGMKYGVETDWPAYIEGWKKLATDELEKYAKNEPTLIRIWGDALFDIVDKDQNGAITLDEWKAYTKAAGIIQSSEDCEETFRVCDIDESGQLDVDEMTRQHLGFWYTMDPACEKLYGGAVP | 476 nm
A179T: apoaequorin mutant, alanine 179 replaced by threonine (SEQ ID NO:11) (protein, mutant aequorin) SKLTSDFDNPRWIGRHKHMFNFLDVNHNGKISLDEMVYKASDIVINNLGATPEQAKRHKDAVEAFFGGAGMKYGVETDWPAYIEGWKKLATDELEKYAKNEPTLIRIWGDALFDIVDKDQNGAITLDEWKAYTKAAGIIQSSEDCEETFRVCDIDESGQLDVDEMTRQHLGFWYTMDPTCEKLYGGAVP | 477 nm
N121D: apoaequorin mutant, asparagine 121 replaced by aspartic acid (SEQ ID NO:9) (protein, mutant aequorin) SKLTSDFDNPRWIGRHKHMFNFLDVNHNGKISLDEMVYKASDIVINNLGATPEQAKRHKDAVEAFFGGAGMKYGVETDWPAYIEGWKKLATDELEKYAKNEPTLIRIWGDALFDIVDKDQDGAITLDEWKAYTKAAGIIQSSEDCEETFRVCDIDESGQLDVDEMTRQHLGFWYTMDPACEKLYGGAVP | 477 nm
Q159G: apoaequorin mutant, glutamine 159 replaced by glycine (SEQ ID NO:7) (protein, mutant aequorin) SKLTSDFDNPRWIGRHKHMFNFLDVNHNGKISLDEMVYKASDIVINNLGATPEQAKRHKDAVEAFFGGAGMKYGVETDWPAYIEGWKKLATDELEKYAKNEPTLIRIWGDALFDIVDKDQNGAITLDEWKAYTKAAGIIQSSEDCEETFRVCDIDESGGLDVDEMTRQHLGFWYTMDPACEKLYGGAVP | 478 nm
QT + AD: apoaequorin double mutant Q159T + A123D (SEQ ID NO:16) (protein, mutant aequorin) SKLTSDFDNPRWIGRHKHMFNFLDVNHNGKISLDEMVYKASDIVINNLGATPEQAKRHKDAVEAFFGGAGMKYGVETDWPAYIEGWKKLATDELEKYAKNEPTLIRIWGDALFDIVDKDQNGDITLDEWKAYTKAAGIIQSSEDCEETFRVCDIDESGTLDVDEMTRQHLGFWYTMDPACEKLYGGAVP | 476 nm
QT + ND: apoaequorin double mutant Q159T + N121D (SEQ ID NO:14) (protein, mutant aequorin) SKLTSDFDNPRWIGRHKHMFNFLDVNHNGKISLDEMVYKASDIVINNLGATPEQAKRHKDAVEAFFGGAGMKYGVETDWPAYIEGWKKLATDELEKYAKNEPTLIRIWGDALFDIVDKDQDGAITLDEWKAYTKAAGIIQSSEDCEETFRVCDIDESGTLDVDEMTRQHLGFWYTMDPACEKLYGGAVP | 478 nm
QD + ND: apoaequorin double mutant Q159D + N121D (SEQ ID NO:13) (protein, mutant aequorin) SKLTSDFDNPRWIGRHKHMFNFLDVNHNGKISLDEMVYKASDIVINNLGATPEQAKRHKDAVEAFFGGAGMKYGVETDWPAYIEGWKKLATDELEKYAKNEPTLIRIWGDALFDIVDKDQDGAITLDEWKAYTKAAGIIQSSEDCEETFRVCDIDESGDLDVDEMTRQHLGFWYTMDPACEKLYGGAVP | 477 nm
A123D: apoaequorin mutant, alanine 123 replaced by aspartic acid (SEQ ID NO:10) (protein, mutant aequorin) SKLTSDFDNPRWIGRHKHMFNFLDVNHNGKISLDEMVYKASDIVINNLGATPEQAKRHKDAVEAFFGGAGMKYGVETDWPAYIEGWKKLATDELEKYAKNEPTLIRIWGDALFDIVDKDQNGDITLDEWKAYTKAAGIIQSSEDCEETFRVCDIDESGQLDVDEMTRQHLGFWYTMDPACEKLYGGAVP | 476 nm
QD + AT: apoaequorin double mutant Q159D + A179T (SEQ ID NO:17) (protein, mutant aequorin) SKLTSDFDNPRWIGRHKHMFNFLDVNHNGKISLDEMVYKASDIVINNLGATPEQAKRHKDAVEAFFGGAGMKYGVETDWPAYIEGWKKLATDELEKYAKNEPTLIRIWGDALFDIVDKDQNGAITLDEWKAYTKAAGIIQSSEDCEETFRVCDIDESGDLDVDEMTRQHLGFWYTMDPTCEKLYGGAVP | 478 nm

Same assay, conditions: CLZ-native; redquorin series, CitA, GA

Molecule | Spectral emission peak
Redq/QT + AT: aporedquorin mutant Q159T + A179T (SEQ ID NO:24) (protein, mutant aequorin) MVSKGEEVIKEFMRFKVRMEGSMNGHEFEIEGEGEGRPYEGTQTAKLKVTKGGPLPFAWDILSPQFMYGSKAYVKHPADIPDYKKLSFPEGFKWERVMNFEDGGLVTVTQDSSLQDGTLIYKVKMRGTNFPPDGPVMQKKTMGWEASTERLYPRDGVLKGEIHQALKLKDGGHYLVEFKTIYMAKKPVQLPGYYYVDTKLDITSHNEDYTIVEQYERSEGRHHLFLGHGTGSTGSGSSGTASSEDNNMAVIKEFMRFKVRMEGSMNGHEFEIEGEGEGRPYEGTQTAKLKVTKGGPLPFAWDILSPQFMYGSKAYVKHPADIPDYKKLSFPEGFKWERVMNFEDGGLVTVTQDSSLQDGTLIYKVKMRGTNFPPDGPVMQKKTMGWEASTERLYPRDGVLKGEIHQALKLKDGGHYLVEFKTIYMAKKPVQLPGYYYVDTKLDITSHNEDYTIVEQYERSEGRHHLFLSGFDNPRWIGRHKHMFNFLDVNHNGKISLDEMVYKASDIVINNLGATPEQAKRHKDAVEAFFGGAGMKYGVETDWPAYIEGWKKLATDELEKYAKNEPTLIRIWGDALFDIVDKDQNGAITLDEWKAYTKAAGIIQSSEDCEETFRVCDIDESGTLDVDEMTRQHLGFWYTMDPTCEKLYGGAVP | 582 nm
